Test results reported in US20060240023A1.
Results are given in words; binding and its absence hold for the method and conditions named. In cells and extracts the contact can be indirect. Some binding calls cover weakened binding; strength is not graded here.

Amino acid sequences for entries named in this document (tags omitted). A change or cut given only in a name is not applied to a line headed by its entry.
UniProt Q99683: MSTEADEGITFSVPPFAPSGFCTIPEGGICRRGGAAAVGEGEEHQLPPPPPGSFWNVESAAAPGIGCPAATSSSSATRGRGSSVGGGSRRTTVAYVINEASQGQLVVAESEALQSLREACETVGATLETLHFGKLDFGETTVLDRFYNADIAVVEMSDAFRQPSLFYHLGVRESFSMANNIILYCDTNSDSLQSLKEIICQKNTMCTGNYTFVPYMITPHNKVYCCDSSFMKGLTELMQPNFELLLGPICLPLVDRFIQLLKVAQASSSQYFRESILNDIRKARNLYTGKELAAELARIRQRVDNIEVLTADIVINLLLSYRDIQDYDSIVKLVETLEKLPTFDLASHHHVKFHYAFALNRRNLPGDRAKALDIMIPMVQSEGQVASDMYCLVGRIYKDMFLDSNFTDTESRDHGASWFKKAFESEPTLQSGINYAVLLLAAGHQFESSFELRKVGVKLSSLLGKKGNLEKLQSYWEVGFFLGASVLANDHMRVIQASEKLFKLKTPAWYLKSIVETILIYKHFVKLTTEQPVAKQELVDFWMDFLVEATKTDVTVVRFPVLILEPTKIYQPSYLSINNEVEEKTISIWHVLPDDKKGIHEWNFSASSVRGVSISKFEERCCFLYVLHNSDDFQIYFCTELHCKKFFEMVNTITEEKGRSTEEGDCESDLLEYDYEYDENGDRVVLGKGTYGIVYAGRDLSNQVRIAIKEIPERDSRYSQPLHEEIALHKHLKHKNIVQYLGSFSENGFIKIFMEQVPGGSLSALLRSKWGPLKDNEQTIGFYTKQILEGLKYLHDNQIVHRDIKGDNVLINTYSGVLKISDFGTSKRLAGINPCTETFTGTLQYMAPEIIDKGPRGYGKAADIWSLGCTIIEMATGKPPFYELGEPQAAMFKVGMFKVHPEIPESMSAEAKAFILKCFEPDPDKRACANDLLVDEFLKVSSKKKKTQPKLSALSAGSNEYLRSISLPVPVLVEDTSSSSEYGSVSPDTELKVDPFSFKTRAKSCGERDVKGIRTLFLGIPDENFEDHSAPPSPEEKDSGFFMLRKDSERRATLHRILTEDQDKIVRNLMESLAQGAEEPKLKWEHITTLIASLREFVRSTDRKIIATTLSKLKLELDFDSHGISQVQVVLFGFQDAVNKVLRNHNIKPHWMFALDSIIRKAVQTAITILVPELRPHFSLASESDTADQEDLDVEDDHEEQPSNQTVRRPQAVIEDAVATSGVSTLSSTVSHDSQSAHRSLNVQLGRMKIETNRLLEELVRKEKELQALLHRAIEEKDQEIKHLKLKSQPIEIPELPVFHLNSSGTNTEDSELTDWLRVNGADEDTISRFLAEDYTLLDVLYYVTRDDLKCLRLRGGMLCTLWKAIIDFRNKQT
UniProt Q9Y605: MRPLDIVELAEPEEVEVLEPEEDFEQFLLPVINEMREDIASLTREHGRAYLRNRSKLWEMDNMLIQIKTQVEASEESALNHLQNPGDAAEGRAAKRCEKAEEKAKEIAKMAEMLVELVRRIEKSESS

Key:
[1] = molecular target: Flag-ASK1 (UniProt Q99683); experiment: co-immunoprecipitation from HEK293 lysate, anti-Flag IP and anti-GFP immunoblot; binding said to be enhanced by H2O2 treatment
[2] = molecular target: Myc-ASK1 (UniProt Q99683); experiment: co-immunoprecipitation from HEK293 lysate, anti-Flag IP and anti-Myc immunoblot; binding said to be enhanced by H2O2 treatment

| Substance | binding [1] | binding [2] |
| --- | --- | --- |
| CFP-ABP1 (from UniProt Q9Y605 1-127) | binds | – |
| Flag-ABP1 (from UniProt Q9Y605 1-127) | – | binds |
